This note sets out measurements from the supplement of paper PMC4604168 (melanoma cell lines).

This is one part of the list. Single values are uncertain, as repeats are few or missing.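 Cells were imaged in 1,536-well plates, and nuclei stained with an antibody against cleaved PARP were counted against all DNA-stained nuclei to give the apoptosis fraction. Screening doses were chosen to leave most cells alive, and resting and induced cleaved-PARP levels differ strongly between cell lines.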

For the test, the system named is UACC257. As to the kind of experiment: cleaved PARP positive nuclei fraction relative to DMSO control; melanoma cells; higher = more apoptosis. The settings on record: library dose: low library concentration; 72 h.
Turning to `NC1(c2ccc(-c3nc4ccn5c(=O)[nH]nc5c4cc3-c3ccccc3)cc2)CCC1` + O=C(Oc1ccc([N+](=O)[O-])cc1)N1CCC(C(O)(c2ccc3c(c2)OCO3)c2ccc3c(c2)OCO3)CC1 [JZL184] (first compound 0.4 µM, partner dose 1 µM), the “cleaved PARP positive nuclei fraction” value stood at 161%.

Take `COc1ccc(C2=N[C@@H](c3ccc(Cl)cc3)[C@@H](c3ccc(Cl)cc3)N2C(=O)N2CCNC(=O)C2)c(OC(C)C)c1` [Nutlin-3] + C/C(O)=C(\C#N)C(=O)Nc1cc(Br)ccc1Br [LFM-A13] (first compound 0.1 µM, partner dose 2 µM): the “cleaved PARP positive nuclei fraction” value stood at 134%. For `O=C(/C=C/c1cccnc1)NCCCCC1CCN(C(=O)c2ccccc2)CC1` + Cc1cc(SCc2sc(-c3ccc(C(F)(F)F)c(F)c3)nc2C)ccc1OCC(=O)O [GW0742] (first compound 0.01 µM, partner dose 2 µM), the “cleaved PARP positive nuclei fraction” value is 94.4%.

With `C[As](C)SC[C@H](NC(=O)CC[C@H](N)C(=O)O)C(=O)NCC(=O)O` [Darinaparsin] + NC(=O)Nc1cc(-c2cccc(F)c2)sc1C(=O)N[C@H]1CCCNC1 [AZD7762] (first compound 0.4 µM, partner dose 0.02 µM), the “cleaved PARP positive nuclei fraction” value stood at 49.5%. Under `C[As](C)SC[C@H](NC(=O)CC[C@H](N)C(=O)O)C(=O)NCC(=O)O` [Darinaparsin] + C[C@@H]1CCN(C(=O)CC#N)C[C@@H]1N(C)c1ncnc2[nH]ccc12 [CP690550] (first compound 0.4 µM, partner dose 1 µM) stands 199%.

With `C[C@]1(O)C[C@@H](c2nc(-c3ccc4ccc(-c5ccccc5)nc4c3)c3c(N)nccn32)C1` + C/C(O)=C(\C#N)C(=O)Nc1cc(Br)ccc1Br [LFM-A13] (first compound 0.4 µM, partner dose 2 µM), the “cleaved PARP positive nuclei fraction” value was found to be 119%. Next, `N.N.[Cl][Pt][Cl]` [cisplatin] + Cc1cc([N+](=O)[O-])ccc1NS(=O)(=O)c1cc(Cl)ccc1Cl [FH535] (first compound 1.6 µM, partner dose 1 µM): 48%. Turning to `Cn1cc(C2=C(c3cn(C4CCN(Cc5ccccn5)CC4)c4ccccc34)C(=O)NC2=O)c2ccccc21` [Enzastaurin] + O=C1NC(=O)/C(=C/c2ccc(-c3ccc(F)cc3O)o2)S1 [AS252424] (first compound 0.8 µM, partner dose 1 µM), the “cleaved PARP positive nuclei fraction” value is 135%. Next, `C=CCNC1=C2C[C@@H](C)C[C@H](OC)[C@H](O)[C@@H](C)/C=C(\C)[C@H](OC(N)=O)[C@@H](OC)/C=C\C=C(/C)C(=O)NC(=CC1=O)C2=O` [Tanespimycin] + Cc1cc(SCc2sc(-c3ccc(C(F)(F)F)c(F)c3)nc2C)ccc1OCC(=O)O [GW0742] (first compound 0.002 µM, partner dose 2 µM): 15.2%; `O=C(O)c1ccc2c(c1)nc(Nc1cccc(Cl)c1)c1ccncc12` + O=C(Oc1ccc([N+](=O)[O-])cc1)N1CCC(C(O)(c2ccc3c(c2)OCO3)c2ccc3c(c2)OCO3)CC1 [JZL184] (first compound 0.4 µM, partner dose 1 µM): 37.2%. Next, `N.N.[Cl][Pt][Cl]` [cisplatin] + Cc1cc(N2CCOCC2)cc2[nH]c(-c3c(NC[C@@H](O)c4cccc(Cl)c4)cc[nH]c3=O)nc12 [BMS536924] (first compound 1.6 µM, partner dose 0.2 µM): 116%; `CC1(C)CCC(c2ccc(Cl)cc2)=C(CN2CCN(c3ccc(C(=O)NS(=O)(=O)c4ccc(N[C@H](CCN5CCOCC5)CSc5ccccc5)c(S(=O)(=O)C(F)(F)F)c4)cc3)CC2)C1` + O=C(Oc1ccc([N+](=O)[O-])cc1)N1CCC(C(O)(c2ccc3c(c2)OCO3)c2ccc3c(c2)OCO3)CC1 [JZL184] (first compound 0.4 µM, partner dose 1 µM): 42.9%; `Cc1cc(Nc2cc(N3CCN(C)CC3)nc(/C=C/c3ccccc3)n2)n[nH]1` + C/C(O)=C(\C#N)C(=O)Nc1cc(Br)ccc1Br [LFM-A13] (first compound 0.04 µM, partner dose 2 µM): 101%. In the case of `N.N.[Cl][Pt][Cl]` [cisplatin] + OCCn1cc(-c2cnc3nnn(Cc4ccc5ncccc5c4)c3n2)cn1 [PF04217903] (first compound 1.6 µM, partner dose 1 µM), the “cleaved PARP positive nuclei fraction” value came to 89.1%. Next, `Cn1cc(C2=C(c3cn(C4CCN(Cc5ccccn5)CC4)c4ccccc34)C(=O)NC2=O)c2ccccc21` [Enzastaurin] + COc1ccc(COc2ccc(Cc3cnc(N)nc3N)cc2OC)cc1 [GW2580] (first compound 0.8 µM, partner dose 1 µM): 187%; `Cn1cc(C2=C(c3cn(C4CCN(Cc5ccccn5)CC4)c4ccccc34)C(=O)NC2=O)c2ccccc21` [Enzastaurin] + c1cc(-c2cnn3cc(-c4ccc(OCCN5CCCCC5)cc4)cnc23)ccn1 [Dorsomorphin] (first compound 0.8 µM, partner dose 0.4 µM): 168%. Next, `C[As](C)SC[C@H](NC(=O)CC[C@H](N)C(=O)O)C(=O)NCC(=O)O` [Darinaparsin] + C=CCn1c(=O)c2cnc(Nc3ccc(N4CCN(C)CC4)cc3)nc2n1-c1cccc(C(C)(C)O)n1 [MK1775] (first compound 0.4 µM, partner dose 0.02 µM): 180%; `Cn1cc(C2=C(c3cn(C4CCN(Cc5ccccn5)CC4)c4ccccc34)C(=O)NC2=O)c2ccccc21` [Enzastaurin] + OCCn1cc(-c2cnc3nnn(Cc4ccc5ncccc5c4)c3n2)cn1 [PF04217903] (first compound 0.8 µM, partner dose 1 µM): 169%; `N.N.[Cl][Pt][Cl]` [cisplatin] + CN(NC(=O)CC(=O)NN(C)C(=S)c1ccccc1)C(=S)c1ccccc1 [STA4783] (first compound 1.6 µM, partner dose 0.006 µM): 111%. Take `C=C(c1ccc(C(=O)O)cc1)c1cc2c(cc1C)C(C)(C)CCC2(C)C` [Bexarotene] + O=C(Oc1ccc([N+](=O)[O-])cc1)N1CCC(C(O)(c2ccc3c(c2)OCO3)c2ccc3c(c2)OCO3)CC1 [JZL184] (first compound 2 µM, partner dose 1 µM): the “cleaved PARP positive nuclei fraction” value was 69.7%. As to `Cn1sc(=O)n(Cc2ccccc2)c1=O` + O=C(Oc1ccc([N+](=O)[O-])cc1)N1CCC(C(O)(c2ccc3c(c2)OCO3)c2ccc3c(c2)OCO3)CC1 [JZL184] (first compound 0.4 µM, partner dose 1 µM), the “cleaved PARP positive nuclei fraction” value is 299%. On to `C[As](C)SC[C@H](NC(=O)CC[C@H](N)C(=O)O)C(=O)NCC(=O)O` [Darinaparsin] + COc1cc(Nc2ncc(F)c(Nc3ccc4c(n3)NC(=O)C(C)(C)O4)n2)cc(OC)c1OC [Tamatinib] (first compound 0.4 µM, partner dose 0.4 µM), for which the “cleaved PARP positive nuclei fraction” value is 337%. Next, `CNC(=O)c1cc(Oc2ccc(NC(=O)Nc3ccc(Cl)c(C(F)(F)F)c3)cc2)ccn1` [sorafenib] + Cc1cc(SCc2sc(-c3ccc(C(F)(F)F)c(F)c3)nc2C)ccc1OCC(=O)O [GW0742] (first compound 0.4 µM, partner dose 2 µM): 128%. Under `Cn1cc(C2=C(c3cn(C4CCN(Cc5ccccn5)CC4)c4ccccc34)C(=O)NC2=O)c2ccccc21` [Enzastaurin] + COC(=O)c1sccc1S(=O)(=O)Nc1ccc(Nc2ccccc2)cc1OC [GSK0660] (first compound 0.8 µM, partner dose 1 µM) stands 76.3%. Next, `COc1cc([C@@H]2c3cc4c(cc3[C@@H](O[C@@H]3O[C@@H]5CO[C@@H](C)O[C@H]5[C@H](O)[C@H]3O)[C@H]3COC(=O)[C@H]23)OCO4)cc(OC)c1O` [etoposide] + C/C(O)=C(\C#N)C(=O)Nc1cc(Br)ccc1Br [LFM-A13] (first compound 0.02 µM, partner dose 2 µM): 250%; `Cn1cnc2c(F)c(Nc3ccc(Br)cc3Cl)c(C(=O)NOCCO)cc21` [selumetinib] + O=C(Oc1ccc([N+](=O)[O-])cc1)N1CCC(C(O)(c2ccc3c(c2)OCO3)c2ccc3c(c2)OCO3)CC1 [JZL184] (first compound 0.015 µM, partner dose 1 µM): 65.4%; `Nc1ncn([C@H]2C[C@H](O)[C@@H](CO)O2)c(=O)n1` [decitabine] + O=C(Oc1ccc([N+](=O)[O-])cc1)N1CCC(C(O)(c2ccc3c(c2)OCO3)c2ccc3c(c2)OCO3)CC1 [JZL184] (first compound 0.1 µM, partner dose 1 µM): 241%.

Regarding `C[As](C)SC[C@H](NC(=O)CC[C@H](N)C(=O)O)C(=O)NCC(=O)O` [Darinaparsin] + O=C(O)c1ccc(-c2c[nH]c3ncc(-c4ccccc4)cc23)cc1C1CCCC1 [GSK650394] (first compound 0.4 µM, partner dose 0.16 µM), the “cleaved PARP positive nuclei fraction” value stood at 96.8%. As for `O=C(Nc1cc(C(F)(F)F)cc(C(F)(F)F)c1)c1cc(Cl)ccc1O` + O=C(Oc1ccc([N+](=O)[O-])cc1)N1CCC(C(O)(c2ccc3c(c2)OCO3)c2ccc3c(c2)OCO3)CC1 [JZL184] (first compound 0.016 µM, partner dose 1 µM), the “cleaved PARP positive nuclei fraction” value stood at 224%. Under `Cn1cc(C2=C(c3cn(C4CCN(Cc5ccccn5)CC4)c4ccccc34)C(=O)NC2=O)c2ccccc21` [Enzastaurin] + O=C(Oc1ccc([N+](=O)[O-])cc1)N1CCC(C(O)(c2ccc3c(c2)OCO3)c2ccc3c(c2)OCO3)CC1 [JZL184] (first compound 0.8 µM, partner dose 1 µM) stands 56.8%.
